The record followed here is PubChem BioAssay AID1498 (National Center for Advancing Translational Sciences (NCATS), 2009).

The nature of the assay: Confirmation Concentration-Response Assay for Modulators of Lamin A Splicing. The settings on record: HeLa lamin A splicing GFP/RFP minigene, Acumen, 48 h; for ratio activity: GFP/RFP ratio at top concentration; for ratio activity / RFP activity: at 46.1 µM; for RFP activity: RFP channel at top concentration. The essentials:
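S3 HeLa cells stably expressing lamin A-EGFP splicing minigene and DsRed2, 600 cells/well in Opti-MEM with 2% FBS, compounds 48 h at 37C; laser-scanning cytometry (488 nm), GFP/RFP total intensity ratio analysed; 0.5% DMSO.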

The mark [1] stands for this setting: measured here: GFP/RFP ratio splicing readout.
The mark [2] stands for this setting: measured here: RFP viability/nonspecific counter channel.

This is one part of the list. The main result of the screen is listed elsewhere. These columns were measured beside it and carry no call. Most of these compounds were active or inconclusive in the main read-out, so they are no random draw. Words in brackets tell the shape of the fitted curve; partial curves, single points and poor fits give uncertain potencies.

Take `CCCCNC(=O)c1onc(CSc2ccccc2CC)c1C(=O)O`: the ratio activity is -54.8% and the RFP activity worked out at 24.6%. Moreover, the AC50 under setting [1] is 35.5 µM [falling, partial curve, poor fit].
On to `Oc1ccc(N=Nc2n[nH]c(-c3ccc(Br)cc3)n2)cc1`, for which the ratio activity is -42% and the RFP activity was -64.1%. Also, the AC50 under setting [1] is 11.2 µM [falling, full curve, poor fit]. Also, under setting [2], the AC50 is 14.1 µM [falling, full curve, poor fit].
For `Nc1ccc(N2CCN(C(=O)c3cccs3)CC2)cc1`, the ratio activity was -46.6% and the RFP activity is -5.92%. Under setting [1], the AC50 was 5.01 µM [falling, full curve, poor fit].
For `Cc1[nH]n(-c2nc(-c3cccc([N+](=O)[O-])c3)cs2)c(=O)c1C`, the ratio activity was -34.4% and the RFP activity amounted to 5.87%. In addition, the AC50 under setting [1] is 28.2 µM [falling, partial curve, poor fit].
Consider `COc1cc(CNc2ncnc3ccc(-c4c(C)noc4C)cc23)cc(OC)c1OC`, for which the ratio activity is -42.6% and the RFP activity worked out at 31.6%. Also, under setting [1], the AC50 was 5.01 µM [falling, full curve, poor fit].
For `Cc1noc(C)c1-c1ccc2ncnc(NCc3ccccc3F)c2c1`, the ratio activity is -30.4% and the RFP activity was found to be 8.27%. Moreover, the AC50 under setting [1] was 10 µM [falling, full curve, poor fit].
Take `Cc1nc(Sc2nnnn2C)c2c3c(sc2n1)CCC3`: the ratio activity is -62.7% and the RFP activity was -40.6%. The AC50 under setting [1] was 0.891 µM [falling, full curve]. In addition, the AC50 under setting [2] is 6.31 µM [falling, full curve, poor fit].
For `N=c1ccn2c(n1)OC1C(O)[C@@H](CO)O[C@H]12` (some centres not stated), the ratio activity was -39.7% and the RFP activity was 51.4%. In addition, the AC50 under setting [1] is 0.0355 µM [falling, full curve]. The AC50 under setting [2] was 0.447 µM [rising, full curve, poor fit].

For orientation: AC50 means the midpoint of the concentration-response curve, whichever way the signal moves.
